According to BigSolDB 2.1:

CN1C(=O)CN=C(c2ccccc2)c2cc(Cl)ccc21
solubility (mole fraction)
Conditions	298.2 K	303.2 K	308.2 K	313.2 K	318.2 K
in NMP	0.0774	0.126	0.138	0.153	0.163
in ethanol	0.00486	0.00521	0.00553	0.00663	0.00774
in propylene glycol	0.00201	0.00275	0.00464	0.00535	0.00679
in water	1.26e-06	1.65e-06	2.39e-06	2.87e-06	4.2e-06

Conditions	solubility (mole fraction)
in PEG-200, 298.2 K	0.0157
in PEG-200, 303.2 K	0.0397
in PEG-200, 308.2 K	0.0805
in PEG-200, 313.2 K	0.151
in PEG-200, 318.2 K	0.173
